Measured values from PMC5225067.
Residue numbers refer to the chain shown, from its start. Results are given in words; binding and its absence hold for the method and conditions named. Some entries that bind do so weakly or less than the wild type. Tags and fused reporters may be left off the sequences shown.

Experiments:
Test in all cases: two-hybrid; Gal4 system in mated PJ69-4 cells; quantitative GAL4 promoter-directed β-galactosidase expression; measured at 25 °C and 39 °C (heat stress); control: pBDC fusion with empty pADC
[1] = target: T1, She4-BD S18E (S. cerevisiae) (UniProt P51534)
T1 sequence: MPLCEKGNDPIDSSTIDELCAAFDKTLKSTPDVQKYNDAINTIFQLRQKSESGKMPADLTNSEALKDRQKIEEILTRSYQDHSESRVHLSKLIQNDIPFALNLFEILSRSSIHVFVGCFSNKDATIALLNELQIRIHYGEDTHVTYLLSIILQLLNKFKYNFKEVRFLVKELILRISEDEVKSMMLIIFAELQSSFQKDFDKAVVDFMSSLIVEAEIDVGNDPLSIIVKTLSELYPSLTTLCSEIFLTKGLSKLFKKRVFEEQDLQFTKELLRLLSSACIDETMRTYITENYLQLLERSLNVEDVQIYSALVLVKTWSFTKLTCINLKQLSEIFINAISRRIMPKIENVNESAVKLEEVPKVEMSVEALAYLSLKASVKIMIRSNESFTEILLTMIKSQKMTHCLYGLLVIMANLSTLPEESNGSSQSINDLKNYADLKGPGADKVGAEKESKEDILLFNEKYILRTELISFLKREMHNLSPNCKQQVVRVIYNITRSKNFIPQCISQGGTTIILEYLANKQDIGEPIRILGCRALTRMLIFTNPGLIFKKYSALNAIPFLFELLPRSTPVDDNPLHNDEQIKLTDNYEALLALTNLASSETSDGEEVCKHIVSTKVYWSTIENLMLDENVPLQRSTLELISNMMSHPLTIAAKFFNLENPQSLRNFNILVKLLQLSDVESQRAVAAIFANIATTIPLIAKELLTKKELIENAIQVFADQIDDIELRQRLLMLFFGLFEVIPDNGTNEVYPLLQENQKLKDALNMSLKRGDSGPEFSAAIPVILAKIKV

[2] = target: T2, She4-BD, wild type (S. cerevisiae) (UniProt P51534)
T2 sequence: T1 sequence with E18S

[3] = target: T3, human BD-UNC45-SM (S251A) (human) (UniProt Q8IWX7)
T3 sequence: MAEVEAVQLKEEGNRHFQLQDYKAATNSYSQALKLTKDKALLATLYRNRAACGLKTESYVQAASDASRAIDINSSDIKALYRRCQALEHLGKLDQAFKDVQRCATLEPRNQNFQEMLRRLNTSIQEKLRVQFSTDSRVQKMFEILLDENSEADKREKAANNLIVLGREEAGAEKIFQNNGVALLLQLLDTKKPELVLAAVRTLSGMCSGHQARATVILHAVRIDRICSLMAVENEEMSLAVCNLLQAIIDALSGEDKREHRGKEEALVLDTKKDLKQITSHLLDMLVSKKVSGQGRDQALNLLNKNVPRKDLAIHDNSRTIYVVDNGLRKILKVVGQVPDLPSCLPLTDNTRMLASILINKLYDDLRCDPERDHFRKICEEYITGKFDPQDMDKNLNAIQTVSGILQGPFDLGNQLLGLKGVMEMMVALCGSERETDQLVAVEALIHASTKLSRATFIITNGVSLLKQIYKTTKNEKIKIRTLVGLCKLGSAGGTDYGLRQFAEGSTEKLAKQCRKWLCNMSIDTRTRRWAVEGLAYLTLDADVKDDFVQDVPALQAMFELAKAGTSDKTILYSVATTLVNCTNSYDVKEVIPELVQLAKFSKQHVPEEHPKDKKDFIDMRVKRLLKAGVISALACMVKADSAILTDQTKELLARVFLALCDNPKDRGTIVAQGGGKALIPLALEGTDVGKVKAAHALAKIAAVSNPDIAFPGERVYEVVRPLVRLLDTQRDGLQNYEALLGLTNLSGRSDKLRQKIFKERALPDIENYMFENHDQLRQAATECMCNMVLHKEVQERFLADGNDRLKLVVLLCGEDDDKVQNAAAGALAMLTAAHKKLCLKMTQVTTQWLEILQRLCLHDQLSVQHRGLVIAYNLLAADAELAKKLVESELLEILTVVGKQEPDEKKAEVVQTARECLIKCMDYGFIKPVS

binding [1]: binds | binding [2]: binds | binding [3]: binds
B1: AD-Myo5 (protein, UniProt Q04439 1-1219)
chain: MAILKRGARKKVHQEPAKRSANIKKATFDSSKKKEVGVSDLTLLSKISDEAINENLKKRFLNATIYTYIGHVLISVNPFRDLGIYTDAVMNEYKGKNRLEVPPHVFAIAESMYYNMKSYNENQCVIISGESGAGKTEAAKRIMQYIAAASSTHTESIGKIKDMVLATNPLLESFGCAKTLRNNNSSRHGKYLEIKFNNQFEPCAGNITNYLLEKQRVVSQIKNERNFHIFYQFTKGASDAYRQTFGVQKPEQYVYTAAAGCISAETIDDLQDYQETLKAMRVIGLGQEEQDQIFRMLAAILWIGNVSFIENEEGNAQVRDTSVTDFVAYLLQIDSQLLIKSLVERIMETNHGMKRGSVYHVPLNIVQADAVRDALAKAIYNNLFDWIVSRVNKSLQAFPGAEKSIGILDIYGFEIFEHNSFEQICINYVNEKLQQIFIQLTLKSEQETYEREKIQWTPIKYFDNKVVCDLIEARRPPGIFAAMNDSVATAHADSNAADQAFAQRLNLFTTNPHFDLRSNKFVIKHYAGDVTYDIDGITDKNKDQLQKDLVELIGTTTNTFLATIFPDTVDRESKRRPPTAGDKIIKSANDLVETLSKAQPSYIRTIKPNETKSPNDYDDRQVLHQIKYLGLQENVRIRRAGFAYRQVFEKFVERFYLLSPHCSYAGDYTWQGDTLDAVKYILQDSSIPQQEYQLGVTSVFIKTPETLFALEHMRDRYWHNMAARIQRAWRRFLQRRIDAATKIQRTIRERKEGNKYEKLRDYGTKVLGGRKERRSMSLLGYRAFMGDYLSCNESKSKGAYIKRQVSIKEKVIFSIHGEALHTKFGRSAQRLKKTFLLTPTTLYIVGQTLVQNAMTYTQDYKIDVRNIQAVSLTNLQDDWVAIKLASSGQPDPLINTYFKTELITHLKRLNDKIQIKIGSAIEYQKKPGKLHSVKCQINESAPKYGDIYKSSTISVRRGNPPNSQVHKKPRKKSSISSGYHASSSQATRRPVSIAAAQHVPTAPASRHSKKPAPPPPGMQNKAATRRSVPNPASTLTASQSNARPSPPTAATRATPAATPAAAAMGSGRQANIPPPPPPPPPSSKPKEPMFEAAYDFPGSGSPSELPLKKGDVIYITREEPSGWSLGKLLDGSKEGWVPTAYMKPHSGNNNIPTPPQNRDVPKPVLNSVQHDNTSANVIPAAAQASLGDGLANALAARANKMRLESDDEEANEDEEEDDW
